Test results: article PMC11040006, “Molecular basis of an atypical dsDNA 5mC/6mA bifunctional dioxygenase CcTet from Coprinopsis cinerea in catalyzing dsDNA 5mC demethylation” (Nucleic Acids Research, 2024)
The exact form of at least one protein or probe is not confirmed. At least one verdict was read from the data and is not stated in words by the source. Protein sequences can lack the tags named with them.

Target: T1, CcTet-ΔN16 (Coprinopsis cinerea) (UniProt A8P1J0)
T1 sequence (looked up, limits assumed): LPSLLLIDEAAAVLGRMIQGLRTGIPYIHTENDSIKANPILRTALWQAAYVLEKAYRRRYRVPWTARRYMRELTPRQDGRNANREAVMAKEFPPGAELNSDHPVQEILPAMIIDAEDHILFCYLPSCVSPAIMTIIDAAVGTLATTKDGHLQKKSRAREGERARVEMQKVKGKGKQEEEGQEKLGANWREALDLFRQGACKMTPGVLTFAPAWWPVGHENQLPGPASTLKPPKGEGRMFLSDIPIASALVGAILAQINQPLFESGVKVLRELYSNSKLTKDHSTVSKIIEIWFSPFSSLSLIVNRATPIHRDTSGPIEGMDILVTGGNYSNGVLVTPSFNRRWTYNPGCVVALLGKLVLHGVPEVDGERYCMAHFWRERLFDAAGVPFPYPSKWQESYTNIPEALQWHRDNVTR
Assay: MST
Details: 5mC at position 8 of strand 1; MST: NT-495 labeled protein, room temperature, 5 min incubation, buffer not stated (protein gel-filtration buffer 20 mM HEPES pH 7.0, 100 mM NaCl, 1 mM DTT); recombinant protein; protein details: N-terminal His-Sumo1, removed by Ulp1

“TCTGGAACGGAATTCTTCA (double strand) [19-bp 5mC-dsDNA]”: binds.
